# In the supplement of paper PMC8728848:
# Some of the results follow.
# B1: Actd5 (Actinidia), P84527 (protein)
# chain: ISSCNGPCRDLNDCDGQLICIKGKCNDDPQVGTHICRGTTHSHQPGGCKPSGTLTCRGKSYPTYDCSPPVTSSTPAKLTNNDFSEGGDDGGPSECDESYHNNNERIVALSTGWYNGGSRCGKMIRITASNGKSVSAKVVDECDSRHGCDKEHAGQPPCRNNIVDGSNAVWSALGLDKNVGVVDITWSMA
# Columns and labels:
# Experiment in all cases: glycan array binding signal (z-score within array); higher = stronger binding
# Settings in all cases: glycan notation: IUPAC condensed, linker removed
# [1] = molecular target: Neu5Ac(a2-3)Gal(b1-4)GlcNAc(b1-2)Man(a1-3)[Neu5Ac(a2-6)Gal(b1-4)GlcNAc(b1-2)Man(a1-6)]Man(b1-4)GlcNAc(b1-4)GlcNAc
# Method in brief: (§1)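 Columns mapping to the same glycan were averaged after glycan names were converted to IUPAC-condensed notation. The data come from 3228 arrays in the Consortium for Functional Glycomics database, limited to those with an available protein sequence. Binding is reported as a within-array Z-score averaged across arrays of one protein sequence and across linkers.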
# [2] = molecular target: Neu5Ac(a2-3)Gal(b1-4)GlcNAc(b1-2)[Neu5Ac(a2-3)Gal(b1-4)GlcNAc(b1-4)]Man(a1-3)[GlcNAc(b1-4)][Neu5Ac(a2-3)Gal(b1-4)GlcNAc(b1-2)[Neu5Ac(a2-3)Gal(b1-4)GlcNAc(b1-6)]Man(a1-6)]Man(b1-4)GlcNAc(b1-4)GlcNAc
# Method in brief: as §1
# [3] = molecular target: Neu5Ac(a2-3)Gal(b1-4)GlcNAc(b1-2)[Neu5Ac(a2-3)Gal(b1-4)GlcNAc(b1-4)]Man(a1-3)[GlcNAc(b1-4)][Neu5Ac(a2-3)Gal(b1-4)GlcNAc(b1-4)Man(a1-6)]Man(b1-4)GlcNAc(b1-4)GlcNAc
# Method in brief: as §1
# [4] = molecular target: Neu5Ac(a2-3)Gal(b1-4)GlcNAc(b1-2)[Neu5Ac(a2-3)Gal(b1-4)GlcNAc(b1-6)]Man(a1-6)[Neu5Ac(a2-3)Gal(b1-4)GlcNAc(b1-2)Man(a1-3)][GlcNAc(b1-4)]Man(b1-4)GlcNAc(b1-4)GlcNAc
# Method in brief: as §1
# [5] = molecular target: Neu5Ac(a2-3)Gal(b1-4)GlcNAc(b1-3)Gal
# Method in brief: as §1
# [6] = molecular target: Neu5Ac(a2-3)Gal(b1-4)GlcNAc(b1-3)Gal(b1-3)GlcNAc
# Method in brief: as §1
# [7] = molecular target: Neu5Ac(a2-3)Gal(b1-4)GlcNAc(b1-3)Gal(b1-4)GlcNAc
# Method in brief: as §1
# [8] = molecular target: Neu5Ac(a2-3)Gal(b1-4)GlcNAc(b1-3)Gal(b1-4)GlcNAc(b1-2)Man(a1-3)[Neu5Ac(a2-3)Gal(b1-4)GlcNAc(b1-3)Gal(b1-4)GlcNAc(b1-2)Man(a1-6)]Man(b1-4)GlcNAc(b1-4)GlcNAc
# Method in brief: as §1
# [9] = molecular target: Neu5Ac(a2-3)Gal(b1-4)GlcNAc(b1-3)Gal(b1-4)GlcNAc(b1-3)Gal(b1-4)GlcNAc
# Method in brief: as §1
# [10] = molecular target: Neu5Ac(a2-3)Gal(b1-4)GlcNAc(b1-3)Gal(b1-4)GlcNAc(b1-3)Gal(b1-4)GlcNAc(b1-2)Man(a1-3)[Neu5Ac(a2-3)Gal(b1-4)GlcNAc(b1-3)Gal(b1-4)GlcNAc(b1-3)Gal(b1-4)GlcNAc(b1-2)Man(a1-6)]GalNAc
# Method in brief: as §1
# [11] = molecular target: Neu5Ac(a2-3)Gal(b1-4)GlcNAc(b1-3)Gal(b1-4)GlcNAc(b1-3)GalNAc
# Method in brief: as §1
# [12] = molecular target: Neu5Ac(a2-3)Gal(b1-4)GlcNAc(b1-3)Gal(b1-4)GlcNAc(b1-3)[Neu5Ac(a2-3)Gal(b1-4)GlcNAc(b1-3)Gal(b1-4)GlcNAc(b1-6)]GalNAc
# Method in brief: as §1
# [13] = molecular target: Neu5Ac(a2-3)Gal(b1-4)GlcNAc(b1-3)Gal(b1-4)GlcNAc(b1-6)[Gal(b1-3)]GalNAc
# Method in brief: as §1
# [14] = molecular target: Neu5Ac(a2-3)Gal(b1-4)GlcNAc(b1-3)Gal(b1-4)[Fuc(a1-3)]GlcNAc
# Method in brief: as §1
# [15] = molecular target: Neu5Ac(a2-3)Gal(b1-4)GlcNAc(b1-3)GalNAc
# Method in brief: as §1
# [16] = molecular target: Neu5Ac(a2-3)Gal(b1-4)GlcNAc(b1-3)[Neu5Ac(a2-3)Gal(b1-4)GlcNAc(b1-6)]GalNAc
# Method in brief: as §1
# [17] = molecular target: Neu5Ac(a2-3)Gal(b1-4)GlcNAc(b1-6)GalNAc
# Method in brief: as §1
# [18] = molecular target: Neu5Ac(a2-3)Gal(b1-4)GlcNAc(b1-6)[Gal(b1-3)]GalNAc
# Method in brief: as §1
# [19] = molecular target: Neu5Ac(a2-3)Gal(b1-4)GlcNAc(b1-6)[Neu5Ac(a2-3)Gal(b1-3)]GalNAc
# Method in brief: as §1
# [20] = molecular target: Neu5Ac(a2-3)Gal(b1-4)GlcNAc6S
# Method in brief: as §1
# [21] = molecular target: Neu5Ac(a2-3)Gal(b1-4)[Fuc(a1-3)]GlcNAc
# Method in brief: as §1
# [22] = molecular target: Neu5Ac(a2-3)Gal(b1-4)[Fuc(a1-3)]GlcNAc(b1-2)Man
# Method in brief: as §1
# [23] = molecular target: Neu5Ac(a2-3)Gal(b1-4)[Fuc(a1-3)]GlcNAc(b1-3)Gal
# Method in brief: as §1
# [24] = molecular target: Neu5Ac(a2-3)Gal(b1-4)[Fuc(a1-3)]GlcNAc(b1-3)Gal(b1-4)GlcNAc
# Method in brief: as §1
# [25] = molecular target: Neu5Ac(a2-3)Gal(b1-4)[Fuc(a1-3)]GlcNAc(b1-3)Gal(b1-4)[Fuc(a1-3)]GlcNAc(b1-3)Gal(b1-4)[Fuc(a1-3)]GlcNAc
# Method in brief: as §1
# [26] = molecular target: Neu5Ac(a2-3)Gal(b1-4)[Fuc(a1-3)]GlcNAc(b1-3)GalNAc
# Method in brief: as §1
# [27] = molecular target: Neu5Ac(a2-3)Gal(b1-4)[Fuc(a1-3)]GlcNAc(b1-6)[Gal(b1-3)]GalNAc
# Method in brief: as §1
# [28] = molecular target: Neu5Ac(a2-3)Gal(b1-4)[Fuc(a1-3)]GlcNAc(b1-6)[Neu5Ac(a2-3)Gal(b1-3)]GalNAc
# Method in brief: as §1
# [29] = molecular target: Neu5Ac(a2-3)Gal(b1-4)[Fuc(a1-3)]GlcNAc6S
# Method in brief: as §1
# [30] = molecular target: Neu5Ac(a2-3)Gal6S(b1-4)GlcNAc
# Method in brief: as §1
# [31] = molecular target: Neu5Ac(a2-3)Gal6S(b1-4)[Fuc(a1-3)]GlcNAc
# Method in brief: as §1
# [32] = molecular target: Neu5Ac(a2-3)GalNAc
# Method in brief: as §1
# [33] = molecular target: Neu5Ac(a2-3)GalNAc(b1-4)GlcNAc
# Method in brief: as §1
# [34] = molecular target: Neu5Ac(a2-3)[GalNAc(b1-4)]Gal(b1-4)Glc
# Method in brief: as §1
# [35] = molecular target: Neu5Ac(a2-3)[GalNAc(b1-4)]Gal(b1-4)GlcNAc
# Method in brief: as §1
# [36] = molecular target: Neu5Ac(a2-3)[GalNAc(b1-4)]Gal(b1-4)GlcNAc(b1-3)GalNAc
# Method in brief: as §1
# [37] = molecular target: Neu5Ac(a2-3)[Neu5Ac(a2-6)]GalNAc
# Method in brief: as §1
# [38] = molecular target: Neu5Ac(a2-6)Gal
# Method in brief: as §1
# [39] = molecular target: Neu5Ac(a2-6)Gal(b1-3)GlcNAc(b1-3)[Gal(b1-4)GlcNAc(b1-6)]Gal(b1-4)Glc
# Method in brief: as §1
# [40] = molecular target: Neu5Ac(a2-6)Gal(b1-4)Glc
# Method in brief: as §1
# [41] = molecular target: Neu5Ac(a2-6)Gal(b1-4)GlcNAc
# Method in brief: as §1
# [42] = molecular target: Neu5Ac(a2-6)Gal(b1-4)GlcNAc(b1-2)Man
# Method in brief: as §1
# [43] = molecular target: Neu5Ac(a2-6)Gal(b1-4)GlcNAc(b1-2)Man(a1-3)Man(b1-4)GlcNAc(b1-4)GlcNAc
# Method in brief: as §1
# [44] = molecular target: Neu5Ac(a2-6)Gal(b1-4)GlcNAc(b1-2)Man(a1-3)[Gal(b1-4)GlcNAc(b1-2)Man(a1-6)]Man(b1-4)GlcNAc(b1-4)GlcNAc
# Method in brief: as §1
# [45] = molecular target: Neu5Ac(a2-6)Gal(b1-4)GlcNAc(b1-2)Man(a1-3)[GlcNAc(b1-2)Man(a1-6)]Man(b1-4)GlcNAc(b1-4)GlcNAc
# Method in brief: as §1
binder,measurement,setting,value
B1,glycan array binding signal (z-score),[1],-0.869
same,glycan array binding signal (z-score),[2],-0.296
same,glycan array binding signal (z-score),[3],-0.344
same,glycan array binding signal (z-score),[4],-0.894
same,glycan array binding signal (z-score),[5],-0.737
same,glycan array binding signal (z-score),[6],0.147
same,glycan array binding signal (z-score),[7],0.453
same,glycan array binding signal (z-score),[8],2.42
same,glycan array binding signal (z-score),[9],-1.55
same,glycan array binding signal (z-score),[10],5.66
same,glycan array binding signal (z-score),[11],-0.279
same,glycan array binding signal (z-score),[12],0.948
same,glycan array binding signal (z-score),[13],0.154
same,glycan array binding signal (z-score),[14],-0.419
same,glycan array binding signal (z-score),[15],0.374
same,glycan array binding signal (z-score),[16],-0.726
same,glycan array binding signal (z-score),[17],-0.87
same,glycan array binding signal (z-score),[18],0.092
same,glycan array binding signal (z-score),[19],-0.545
same,glycan array binding signal (z-score),[20],0.246
same,glycan array binding signal (z-score),[21],-0.42
same,glycan array binding signal (z-score),[22],-1.27
same,glycan array binding signal (z-score),[23],-0.144
same,glycan array binding signal (z-score),[24],0.65
same,glycan array binding signal (z-score),[25],-0.158
same,glycan array binding signal (z-score),[26],1.09
same,glycan array binding signal (z-score),[27],1.5
same,glycan array binding signal (z-score),[28],-0.33
same,glycan array binding signal (z-score),[29],-0.958
same,glycan array binding signal (z-score),[30],-0.992
same,glycan array binding signal (z-score),[31],-0.852
same,glycan array binding signal (z-score),[32],-0.832
same,glycan array binding signal (z-score),[33],-0.145
same,glycan array binding signal (z-score),[34],-0.705
same,glycan array binding signal (z-score),[35],-0.542
same,glycan array binding signal (z-score),[36],0.22
same,glycan array binding signal (z-score),[37],-0.329
same,glycan array binding signal (z-score),[38],-0.507
same,glycan array binding signal (z-score),[39],-0.211
same,glycan array binding signal (z-score),[40],0.137
same,glycan array binding signal (z-score),[41],-0.691
same,glycan array binding signal (z-score),[42],0.227
same,glycan array binding signal (z-score),[43],-0.071
same,glycan array binding signal (z-score),[44],-0.093
same,glycan array binding signal (z-score),[45],-0.252

# 3 entries from above, set out differently.
binder	measurement	setting	value
B1	glycan array binding signal (z-score)	[2]	-0.296
same	glycan array binding signal (z-score)	[3]	-0.344
same	glycan array binding signal (z-score)	[4]	-0.894
